{"source": "PubChem BioAssay AID1159584 (Peter MacCallum Cancer Centre, 2016)", "assay": "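Genes whose loss is lethal only together with E-cadherin loss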 (primary screen)", "system": "human MCF10A breast epithelial cells, parental and CDH1-null", "knock-down reagent": "siRNA against human genes", "measurement": "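Cell viability by CellTiter-Glo ATP luminescence, each line scaled to the mean of mock wells across plates, then CDH1-null over parental ratio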", "scale": "CDH1-null / parental viability ratio: higher = CDH1-null cells survive relatively better than parental; CDH1-null viability vs mock: higher = more viable CDH1-null cells", "units": "CDH1-null viability vs mock in fraction of mock", "note": "This is one part, drawn at random, of about 18,000 reagents tested. Further read-outs or replicates are left out here. Reagent sequences are not shown. Not stated in the record: the amount of reagent, the time to read-out."}
{"gene knocked down": "ACP6 (acid phosphatase 6, lysophosphatidic)", "CDH1-null / parental viability ratio": 1.49, "CDH1-null viability vs mock": 1.04}
{"gene knocked down": "DRC2 (dynein regulatory complex subunit 2)", "CDH1-null / parental viability ratio": 1.09, "CDH1-null viability vs mock": 1}
{"gene knocked down": "KIF19 (kinesin family member 19)", "CDH1-null / parental viability ratio": 0.94, "CDH1-null viability vs mock": 0.73}
{"gene knocked down": "MYF5 (myogenic factor 5)", "CDH1-null / parental viability ratio": 1.07, "CDH1-null viability vs mock": 0.96}
{"gene knocked down": "NPY2R (neuropeptide Y receptor Y2)", "CDH1-null / parental viability ratio": 1.09, "CDH1-null viability vs mock": 0.72}
{"gene knocked down": "TMCO6 (transmembrane and coiled-coil domains 6)", "CDH1-null / parental viability ratio": 1.19, "CDH1-null viability vs mock": 0.68}
{"gene knocked down": "PKN2 (protein kinase N2)", "CDH1-null / parental viability ratio": 1.41, "CDH1-null viability vs mock": 1}
{"gene knocked down": "PRDX4 (peroxiredoxin 4)", "CDH1-null / parental viability ratio": 1.11, "CDH1-null viability vs mock": 1.19}
{"gene knocked down": "TRMU (tRNA mitochondrial 2-thiouridylase)", "CDH1-null / parental viability ratio": 1.03, "CDH1-null viability vs mock": 0.95}
{"gene knocked down": "EPHA4 (EPH receptor A4)", "CDH1-null / parental viability ratio": 0.83, "CDH1-null viability vs mock": 0.62}
{"gene knocked down": "TTC22 (tetratricopeptide repeat domain 22)", "CDH1-null / parental viability ratio": 0.92, "CDH1-null viability vs mock": 0.68}
{"gene knocked down": "FAM169BP (family with sequence similarity 169 member B, pseudogene)", "CDH1-null / parental viability ratio": 1.15, "CDH1-null viability vs mock": 0.76}
{"gene knocked down": "NTRK1 (neurotrophic receptor tyrosine kinase 1)", "CDH1-null / parental viability ratio": 0.86, "CDH1-null viability vs mock": 0.72}
{"gene knocked down": "SETD9 (SET domain containing 9)", "CDH1-null / parental viability ratio": 0.99, "CDH1-null viability vs mock": 0.76}

2 entries already listed, sorted by “CDH1-null / parental viability ratio”, ascending.
{"gene knocked down": "PRDX4 (peroxiredoxin 4)", "CDH1-null / parental viability ratio": 1.11, "CDH1-null viability vs mock": 1.19}
{"gene knocked down": "PKN2 (protein kinase N2)", "CDH1-null / parental viability ratio": 1.41, "CDH1-null viability vs mock": 1}
